PubChem BioAssay AID1259254, NCATS – 2017

- Purpose: 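Finding genes that stop cells copying their DNA twice in one cycle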 (primary screen)
- System: human HCT116 colorectal cancer cells
- Reagents: single siRNA against human genes
- Duration: 3 days
- Read-out: 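Imaged Hoechst DNA stain sorts each cell into a cycle phase by DNA amount; per plate, G2 fraction set to 0% for non-targeting and 100% for GMNN siRNA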
- Reading the numbers: G2 robust z-score and G2 cells, % of GMNN control: higher = more G2 cells, more excess DNA replication; raw share of cells in G2: higher = larger share of cells with G2 DNA content
- Call rule: 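An siRNA counts as active if its G2 robust z-score lies at least 5 MADs above the screen median; here such calls match roughly 38% of GMNN control or more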
The deposit covers about 59,000 reagents; shown is an unselected part. Over the whole deposit, about 1,550 (2.6%) got an active call. 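G2 share is only a proxy for re-replication; each gene was hit by three separate siRNAs, and active genes were retested.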 Raw values are not corrected between plates. The record does not give: the amount of reagent.

| gene symbol | PubChem SID | G2 robust z-score | G2 cells, % of GMNN control | raw share of cells in G2 (%) | call |
| --- | --- | --- | --- | --- | --- |
| TMEM184B (transmembrane protein 184B) | SID160737064 | 0.682 | 7.77 | 7.33 | inactive |
| TMEM184B (transmembrane protein 184B) | SID160737066 | -0.3 | 0.854 | 4.31 | inactive |
| TMEM184B (transmembrane protein 184B) | SID160737067 | -0.964 | -3.81 | 1.97 | inactive |
| TMEM235 (transmembrane protein 235) | SID160724999 | -0.0335 | 2.73 | 4.1 | inactive |
| TMEM235 (transmembrane protein 235) | SID160732956 | -0.89 | -3.29 | 2.27 | inactive |
| TMEM235 (transmembrane protein 235) | SID160763107 | 1.1 | 10.7 | 7.54 | inactive |
| TECTB (tectorin beta) | SID160717856 | 1.42 | 12.9 | 10.9 | inactive |
| TECTB (tectorin beta) | SID160717857 | -1.05 | -4.45 | 2.13 | inactive |
| TECTB (tectorin beta) | SID160734209 | 0.268 | 4.85 | 5.06 | inactive |
| FAM153B (family with sequence similarity 153 member B) | SID160732668 | -0.0239 | 2.8 | 4.09 | inactive |
| FAM153B (family with sequence similarity 153 member B) | SID160761052 | 0.757 | 8.29 | 6.58 | inactive |
| FAM153B (family with sequence similarity 153 member B) | SID160761054 | 0.68 | 7.75 | 5.78 | inactive |
| NANS (N-acetylneuraminate synthase) | SID160741597 | -0.397 | 0.175 | 3.87 | inactive |
| NANS (N-acetylneuraminate synthase) | SID160741598 | 1.48 | 13.4 | 12 | inactive |
| NANS (N-acetylneuraminate synthase) | SID160741599 | 1.25 | 11.8 | 8.59 | inactive |
| METTL8 (methyltransferase 8, tRNA N3-cytidine) | SID160749538 | 0.128 | 3.87 | 6.05 | inactive |
| METTL8 (methyltransferase 8, tRNA N3-cytidine) | SID160749539 | 0.0544 | 3.35 | 5.77 | inactive |
| METTL8 (methyltransferase 8, tRNA N3-cytidine) | SID160749540 | 0.372 | 5.58 | 3.9 | inactive |
| ZFAND2A (zinc finger AN1-type containing 2A) | SID160753769 | 0.343 | 5.38 | 7.28 | inactive |
| ZFAND2A (zinc finger AN1-type containing 2A) | SID160753770 | -1.06 | -4.51 | 2.78 | inactive |
| ZFAND2A (zinc finger AN1-type containing 2A) | SID160753771 | 1.53 | 13.8 | 12.1 | inactive |
| KLHDC2 (kelch domain containing 2) | SID160736621 | 9.25 | 68 | 30 | active |
| KLHDC2 (kelch domain containing 2) | SID160736623 | -0.118 | 2.14 | 4.87 | inactive |
| KLHDC2 (kelch domain containing 2) | SID160736624 | -0.41 | 0.0853 | 3.33 | inactive |
| DDN (dendrin) | SID160735469 | 1.86 | 16 | 11.3 | inactive |
| DDN (dendrin) | SID160735470 | 0.197 | 4.35 | 5.93 | inactive |
| DDN (dendrin) | SID160735471 | -0.679 | -1.81 | 2.5 | inactive |
| LILRB1 (leukocyte immunoglobulin like receptor B1) | SID160729358 | 0.704 | 7.92 | 9.14 | inactive |
| LILRB1 (leukocyte immunoglobulin like receptor B1) | SID160729359 | 0.416 | 5.89 | 8.8 | inactive |
| LILRB1 (leukocyte immunoglobulin like receptor B1) | SID160729360 | 0.982 | 9.88 | 7.04 | inactive |

Ordered by “raw share of cells in G2 (%)” (descending): some entries from above.
| gene symbol | PubChem SID | G2 robust z-score | G2 cells, % of GMNN control | raw share of cells in G2 (%) | call |
| --- | --- | --- | --- | --- | --- |
| TECTB (tectorin beta) | SID160717856 | 1.42 | 12.9 | 10.9 | inactive |
| TMEM235 (transmembrane protein 235) | SID160763107 | 1.1 | 10.7 | 7.54 | inactive |
| TECTB (tectorin beta) | SID160734209 | 0.268 | 4.85 | 5.06 | inactive |
| FAM153B (family with sequence similarity 153 member B) | SID160732668 | -0.0239 | 2.8 | 4.09 | inactive |
| TECTB (tectorin beta) | SID160717857 | -1.05 | -4.45 | 2.13 | inactive |
